Measurements: article PMC8301025 (Biology, 2021)
Where two headings read alike, the source gives them in different places.

Tested on: T1, CLas GMPS (guanosine 5′-monophosphate synthetase)
T1 construct: gene guaA
Format: biochemical, Candidatus Liberibacter asiaticus

SMILES: Nc1ncnc2c1ncn2[C@@H]1O[C@H](COP(=O)(O)OP(=O)(O)OP(=O)(O)O)[C@@H](O)[C@H]1O [ATP]
- Km (read-out: Km): 258 ± 24.9 µM

SMILES: NC(=O)CC[C@H](N)C(=O)O [glutamine]
- Km (read-out: Glutamine, Km μM): 215 ± 26.8 µM
